Test results taken from PubChem BioAssay AID540256 (National Center for Advancing Translational Sciences (NCATS), 2011).
Out of some 300,000 compounds screened, about 3,700 (1.2%) were called active. Inconclusive means that the source gave no clear call. Such entries were picked first, then a sample of the others. Calls come from the whole dose curve; tested in HEK293 cells. Potencies of inconclusive entries are doubtful fits and often do not repeat.

Experiment: qHTS for Inhibitors of binding or entry into cells for Lassa Virus; note: nearly all actives have a fitted effect of over 50% in size
Details: Lassa virus pseudotype entry inhibition, cell reporter; activity change, negative = inhibition: at 37.9 µM (top of the series) unless noted
% is set by controls: 0 for no effect and ±100 for the full control effect; potency is the fitted concentration of half-maximal effect.

SMILES	Potency	activity change, negative = inhibition
CCCNC(=O)c1ccc(-n2c(-c3ccccc3)cc3c2CCC(C)C3)cc1 (configuration not stated)	inconclusive: 11.2 µM [inhibitor, single point]	–
O=C(NC(Cc1ccccc1)C(=O)N1CCN(c2ccccn2)CC1)c1ccco1 (configuration not stated)	inconclusive: 20.6 µM [inhibitor, single point]	–
N#C/C(=C1/CCCCCN1)c1nc2ccccc2[nH]1	inconclusive: 2.91 µM [activator, partial curve, poor fit]	–
CN(C)S(=O)(=O)c1cccc(COC(=O)Cc2c(F)cccc2Cl)c1	inconclusive: 8.91 µM [inhibitor, partial curve, poor fit]	–
CCc1ccc(C(=O)COC(=O)c2ccc(Cl)nc2)cc1	–	inactive: -2.44% [at 46.1 µM]
Cc1cc(OCC(=O)C(C)(C)C)c2c(C)c(C)c(=O)oc2c1	inconclusive: 35.5 µM [inhibitor, single point]	–
COC(=O)[C@@]1(Cc2ccc(OC)cc2)[C@H]2c3cc(C(=O)N(C)C)n(Cc4ccc(OC(F)(F)F)cc4)c3C[C@H]2CN1C(=O)c1ccccc1	inconclusive: 29.1 µM [inhibitor, single point]	–
CCOc1ccc(CCNC(=O)COC(=O)c2ccc(Cl)nc2)cc1OCC	inconclusive: 35.5 µM [activator, single point]	–
O=c1oc2ccc(Br)cc2cc1-c1csc(-c2ccc(Cl)cc2)n1	inconclusive: 11.2 µM [activator, partial curve, poor fit]	–
COc1cc2c(cc1NC(=O)/C=C/c1cc(OC)c(OC)c(OC)c1)oc1ccccc12	inconclusive: 35.5 µM [inhibitor, single point]	–
Cc1cccc(NC(=S)NC(=O)C(c2ccccc2)c2ccccc2)n1	inconclusive: 22.4 µM [inhibitor, single point]	–
O=C(CC(NCc1cccnc1)C(=O)O)Nc1ccc(F)cc1 (configuration not stated)	–	inactive: -1.07% [at 46.1 µM]
Cn1nnnc1SCCNCc1ccc(F)cc1	inconclusive: 35.5 µM [activator, single point]	–
O=C(NCCOC12CC3CC(CC(C3)C1)C2)c1cccc(Br)c1	inconclusive: 3.66 µM [inhibitor, partial curve, poor fit]	–
Cc1ccc(CN(C(=O)COc2cccc([N+](=O)[O-])c2)c2ccccn2)o1	inconclusive: 2.82 µM [inhibitor, full curve, poor fit]	–
N#CCCN1CCN(C2=NC(=O)C(=C3CCCCC3)S2)CC1	–	inactive: 15.9%
CC(C)(C)SCCNC(=O)CN(c1ccccc1)S(=O)(=O)c1ccccc1	inconclusive: 6.51 µM [inhibitor, full curve, poor fit]	–
O=C1/C(=C/c2cccc(F)c2)Oc2cc(O)ccc21	inconclusive: 22.4 µM [activator, partial curve, poor fit]	–
COc1ccccc1C(=O)Nc1cccc(NC(=O)c2ccccc2OC)n1	inconclusive: 3.55 µM [inhibitor, partial curve, poor fit]	–
CCC(NC(=O)Cc1cccs1)c1ccccc1 (configuration not stated)	–	inactive: -9.43% [at 46.1 µM]
CCOC(=O)c1c(C)[nH]c(C(=O)N/N=C/c2cc([N+](=O)[O-])ccc2O)c1C	active: 6.51 µM	–
O=C(CN1C(=O)c2cccnc2Oc2ccc(Cl)cc21)NC1CCCC1	inconclusive: 35.5 µM [inhibitor, single point]	–
COc1ccc(CNC(=O)C(OC(=O)c2nsc(Cl)c2Cl)C(C)C)cc1 (configuration not stated)	inconclusive: 15.8 µM [activator, single point]	–

SMILES	Potency	activity change, negative = inhibition
Cn1cccc1C(=O)OCc1csc(-c2ccccc2)n1	inconclusive: 18.3 µM [inhibitor, single point]	–
Cc1cccn2c(=O)nc(SCC(=O)Nc3ccc4c(c3)OCCO4)nc12	inconclusive: 14.1 µM [inhibitor, single point]	–
O=[N+]([O-])c1cc(O)c2ncccc2c1	inconclusive: 11.2 µM [inhibitor, partial curve, poor fit]	–
COc1ccccc1CN1CCN(C(=O)COc2cccc(C)c2)CC1	inconclusive: 5.62 µM [inhibitor, single point]	–
NC(=O)c1cc(Sc2ccccc2)nc2ccccc12	–	inactive: -17.4% [at 46.1 µM]
CN(Cc1cc([N+](=O)[O-])c2cccnc2c1O)C1CCCCC1	–	inactive: 8.47%
COc1cc(C(=O)NCCN=C2NS(=O)(=O)c3ccccc32)cc(OC)c1OC	inconclusive: 0.0041 µM [inhibitor, full curve, poor fit]	–
COc1ccc2nc(NC(=O)CN3CCOCC3)sc2c1	–	inactive: 3.69%
COc1ccc(NC(=O)c2sccc2C)cn1	–	inactive: -0.561%
COc1ccc(NC(=O)CN2C(=O)CN=C(c3ccccc3)c3ccccc32)c(OC)c1	–	inactive: 5.54% [at 46.1 µM]
COC(=O)COc1cccc(NC(=O)c2ccc(Cl)cc2)c1	–	inactive: 0.76%
CCOC(=O)N1CCN(C(=O)CCCOc2ccccc2)CC1	inconclusive: 25.9 µM [inhibitor, single point]	–
Cc1cc(C)n2cc(CSc3nnnn3-c3ccccc3C)nc2n1	inconclusive: 1.41 µM [inhibitor, partial curve, poor fit]	–
COc1ccc(-c2noc(CN(C)CCC3CCCCO3)n2)cc1 (configuration not stated)	–	inactive: 3.03%
CCOc1ccccc1-n1c(O)c(C=Nc2c(C)n(C)n(-c3ccccc3)c2=O)c(=O)[nH]c1=O	inconclusive: 2.59 µM [inhibitor, partial curve, poor fit]	–
CN(Cc1cc(Cl)cc(Cl)c1)CC(C(=O)c1ccccc1)c1ccccc1 (configuration not stated)	inconclusive: 12.6 µM [inhibitor, single point]	–
Nc1nc(=S)c2[nH]c(=S)[nH]c2[nH]1	–	inactive: -7% [at 46.1 µM]
CC1(C)Cc2ccccc2-c2nc(NCCO)n(-c3ccccc3)c(=O)c21	inconclusive: 20 µM [inhibitor, single point]	–
Cc1cc(Cn2nnnc2-c2ccncc2)cc(C)c1O	inconclusive: 15.8 µM [inhibitor, single point]	–
CCc1ccc(CNC(=O)c2cccc(-n3cnc4cccnc43)c2C)cc1	inconclusive: 7.94 µM [inhibitor, partial curve]	–
Cc1ccc(COc2ccc(Br)cc2/C=N/O)cc1	inconclusive: 29.1 µM [activator, single point]	–
N#C/C(=C/c1cn(Cc2ccc(F)cc2)c2ccccc12)C(=O)Nc1cccc(Cl)c1	–	inactive: -9.34% [at 46.1 µM]
COc1ccc2c(c1)[C@@]13CCCC[C@H]1[C@@H](C2)NCC3	inconclusive: 0.651 µM [activator, full curve, poor fit]	–

SMILES	Potency	activity change, negative = inhibition
N=c1c2c(ncn1CCN1CCOCC1)Oc1ccc3ccccc3c1C2c1ccccc1 (configuration not stated)	–	inactive: -0.72%
COc1ccccc1Nc1nn2c(=O)c3ccc(C(=O)NCCCOC(C)C)cc3nc2s1	inconclusive: 5.01 µM [inhibitor, single point]	–
COc1ccc([C@]23Cc4ccccc4[C@H](O2)c2c(c4ccc(OC)cc4oc2=O)O3)cc1	inconclusive: 0.335 µM [inhibitor, partial curve, poor fit]	–
CCOc1ccc(CCNC(=O)CCCn2nc(C)c3sc4ccccc4c3c2=O)cc1OCC	inconclusive: 15.8 µM [inhibitor, single point]	–
CCCc1cc(=O)[nH]c(Nc2ccc(C(=O)O)cc2)n1	inconclusive: 1.58 µM [activator, partial curve, poor fit]	–
CC(=O)Nc1ccc(C(=O)OCC(=O)Nc2ccccc2Sc2ccccc2)cc1	inconclusive: 25.1 µM [inhibitor, single point]	–
COc1ccc(-n2c(COc3ccc(Cl)cc3)nnc2SCc2ccc(C#N)cc2)cc1	inconclusive: 20.6 µM [inhibitor, single point]	–
COc1ccc(/C=N/Nc2nncn2N)cc1Br	inconclusive: 31.6 µM [inhibitor, single point]	–
CCOc1ccc(C(=O)N2CCN(CCc3ccccc3)CC2)cc1OCC	inconclusive: 4.47 µM [inhibitor, partial curve, poor fit]	–
Cc1csc(NC(=O)CSc2nccn2C)n1	inconclusive: 35.5 µM [activator, partial curve, poor fit]	–
O=C(CCl)Nc1nc(-c2ccco2)c(-c2ccco2)s1	inconclusive: 32.6 µM [inhibitor, partial curve, poor fit]	–
S=c1[nH]nc(CSCc2ccccc2Cl)n1C1CCCCC1	inconclusive: 8.91 µM [inhibitor, partial curve, poor fit]	–
CSCCC(NS(=O)(=O)c1cccs1)C(=O)NCc1ccc(C)cc1 (configuration not stated)	inconclusive: 32.6 µM [inhibitor, partial curve, poor fit]	–
COc1cc(-c2noc(-c3ccc(NCc4cccnc4)c([N+](=O)[O-])c3)n2)cc(OC)c1OC	–	inactive: -3% [at 46.1 µM]
Cn1c(SCc2c(Cl)cccc2Cl)nnc1-c1ccc2nonc2c1	–	inactive: -8.61%
COC(=O)C1=NN(C(C)=O)C2(CC(=O)N(c3cccc(C)c3)C2=O)C1 (configuration not stated)	inconclusive: 2.82 µM [inhibitor, partial curve, poor fit]	–
O=C(Nc1cccc(-c2cc3ccccc3oc2=O)c1)c1ccc(Br)o1	inconclusive: 0.891 µM [activator, full curve, poor fit]	–
O=C(Nc1ccc(N2CCCCC2)cc1)c1ccccc1	active: 7.3 µM	–
Cc1ccc(OCCn2cc(C(=S)N3CCCC3)c3ccccc32)cc1C	active: 2.82 µM	–
CC1Sc2ccc(S(=O)(=O)N3CCC(C(=O)N(C)Cc4ccco4)CC3)cc2NC1=O (configuration not stated)	inconclusive: 20 µM [inhibitor, partial curve, poor fit]	–
Nc1ccccc1C(=O)OCC(=O)Nc1ccc(Br)cc1F	–	inactive: -9.55%

Reformatted in markdown: entries from further up.

| SMILES | Potency | activity change, negative = inhibition |
| --- | --- | --- |
| Cc1csc(NC(=O)CSc2nccn2C)n1 | inconclusive: 35.5 µM [activator, partial curve, poor fit] | – |
| O=C(CCl)Nc1nc(-c2ccco2)c(-c2ccco2)s1 | inconclusive: 32.6 µM [inhibitor, partial curve, poor fit] | – |
| S=c1[nH]nc(CSCc2ccccc2Cl)n1C1CCCCC1 | inconclusive: 8.91 µM [inhibitor, partial curve, poor fit] | – |
